# Measurements: the supplement of paper PMC12889115
# The list shows a part of the results. Values are raw readings; no control value is given beside them.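 First-pass screen: polymyxin B was added at a level that permeabilizes the Salmonella outer membrane while sparing the inner membrane. DMSO wells, with and without polymyxin B, defined maximum growth. Because plates differed from one another, each plate's data were ranked separately and the compounds with the lowest OD600 were carried forward as hits.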
# Tested on: Salmonella enterica serovar Typhimurium SL1344
# Experiment: bacterial growth OD600 after 18 h with compound and polymyxin B; higher = more bacterial growth (less inhibition)
# Conditions: 50 µM, Mueller-Hinton broth
SMILES,bacterial growth OD600 (polymyxin B 0.75 µg/mL),bacterial growth OD600 (polymyxin B 1 µg/mL)
CCOc1ccccc1CN1CCCC(CCC(=O)NCc2ccc(OC)cc2OC)C1 (stereo not given),0.847,–
COc1ccccc1OCC(=O)N1CCC2(CCCN(CCc3ccccc3)C2)C1 (stereo not given),–,0.012
COCCCN1C(=O)CC(CC(=O)N2CCCC(C(=O)CC(C)C)C2)(c2ccccc2OC)C1=O (stereo not given),0.622,–
Cc1csc(CNc2nncc(-c3ccc(F)cc3)n2)n1,–,0.931
CCOC(=O)C1(Cc2cccc(OC)c2)CCN(Cc2nccn2CC)CC1,–,0.972
COc1cccc(CN2CC[C@@H](N3CCC(O)CC3)[C@H](O)C2)c1,0.889,–
O=C(c1ccccn1)N1CCC2(CCCN(Cc3ccc(F)cc3)C2=O)C1 (stereo not given),–,0.898
COc1ccc(C(=O)N2CCCN(C=O)CC2)cc1OC1CCN(C(C)C)CC1,–,1.08
CSc1nccc(-c2cc(Cl)c3c(c2)CC(CNC(=O)C(c2cccnc2)N2CCCC2)O3)n1 (stereo not given),0.876,–
O=C(CCC1(Cc2ccc3ccccc3c2)CCC(=O)N1)NCc1cccc(Cl)c1 (stereo not given),0.048,–
CC(=O)NC(C(=O)N1CCc2c(cnc(C)c2CNC(=O)c2ccsc2)C1)C(C)C (stereo not given),0.815,–
CN(C(=O)c1ccco1)C(Cc1ccc(F)cc1F)C1CCN(Cc2cccc3ncccc23)CC1 (stereo not given),0.714,–
O=C(CCc1ccco1)N1CCC(C2CCN(Cc3cccnc3)CC2)C1 (stereo not given),0.865,–
COc1cccc(CCC2CCCN(C(=O)CSC)C2)c1 (stereo not given),0.58,–
CC1=C(C(=O)N2CCOC(CCCc3ccccc3)C2)OCCO1 (stereo not given),0.777,–
COc1ccc([C@@H](C)NC2CCN(c3nc(C)c4ccc(OC)cc4n3)CC2)cc1,1.02,–
O=C(NCCc1nccc(-c2ccccc2)n1)C1CCC(=O)N(CCN2CCOCC2)C1 (stereo not given),–,0.869
OCC1(Cc2cccc(Cl)c2)CCCN(C2Cc3ccccc3C2)C1 (stereo not given),–,1.14
O=C(CN1CCCCC1=O)NC1CCCN(C2CCCCCC2)C1 (stereo not given),–,0.881
O=C(CC1(c2cccc(F)c2)CC(=O)N(Cc2cccnc2)C1=O)N1CCN(C2CCCC2)CC1 (stereo not given),0.775,–
O=C(c1cn(CCCc2ccccc2)nn1)N1CCCCC1c1nccs1 (stereo not given),–,0.625
Cc1ccc2c(C)nc(N3CCCC(C(=O)NCCc4ccccc4)C3)nc2c1 (stereo not given),0.802,–
O=C(C1CCOCC1)N1CCCC(CCc2ccc(F)c(F)c2)C1 (stereo not given),0.76,–
COC(=O)[C@@H]1CCCN1C(=O)Cc1ccc(N2CCC(NCCCn3ccnc3)CC2)cc1,0.941,–
CN(Cc1ccccc1)c1ncc2c(n1)CC(C)(C)CC2NCc1cnn(C)c1 (stereo not given),–,0.913
COC(=O)c1ccc(CNC(C)c2cnc(-c3ccncc3)nc2C)cc1 (stereo not given),–,0.707
O=C(CCC1(Cc2ccc3ccccc3c2)CCC(=O)N1)NC(C1CC1)C1CC1 (stereo not given),0.811,–
Cc1nn(C)cc1CNC(=O)C1CCCN(C2CCN(Cc3ccccc3)CC2)C1 (stereo not given),0.975,–
CCn1ncc(CNC2CC(=O)N(Cc3cccc4ccccc34)C2)c1C (stereo not given),–,0.659
Cc1cc(C)n(CC(=O)NCCN2Cc3ccccc3OC(c3ccccc3F)C2)n1 (stereo not given),0.757,–

# Individual results from the results shown:
# O=C(c1cn(CCCc2ccccc2)nn1)N1CCCCC1c1nccs1 (stereo not given) | bacterial growth OD600 (polymyxin B 1 µg/mL): 0.625
# Cc1cc(C)n(CC(=O)NCCN2Cc3ccccc3OC(c3ccccc3F)C2)n1 (stereo not given) | bacterial growth OD600 (polymyxin B 0.75 µg/mL): 0.757
